Assay results published in PubChem BioAssay AID504444 (National Center for Advancing Translational Sciences (NCATS), 2011).
About 7,500 (2.1%) of roughly 360,000 compounds were called active. This list was built around the results that the source calls inconclusive (neither active nor inactive); the mix of calls is not that of the screen. The call rests on the fitted dose curve; in most records, active means well fitted inhibition curve with a large enough effect; inconclusive means small, poorly fitted or top-dose-only effect, or effect the other way; inactive means flat fitted curve, though single readings scatter. Where the call is inconclusive, the potency comes from a doubtful curve fit.

Assay: Nrf2 qHTS screen for inhibitors; further: nearly all actives have a fitted effect of over 60% in size
Settings: A549 ARE-Fluc reporter, luciferase luminescence, 18-24 h; activity change, negative = inhibition: at 46 µM (top of the series)
Outline: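 Nrf2 activity is the BugLite luminescence, read 15 min after reagent at room temperature, following CellTiter-Fluor cytotoxicity readout (30 min, 37C). Compound titrations were applied for 18-24 h to 5000 A549 ARE_Fluc cells/well in 5% FBS OPTI-MEM.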
On the % scale 0 is the no-effect control and ±100 the full control effect; potency means the concentration at half of the fitted maximal effect.

Row | Compound | Potency | activity change, negative = inhibition
1 | C/C(=N\Nc1cc(C)nc(-c2ccccc2)n1)c1cccc([N+](=O)[O-])c1 | inconclusive: 20.6 µM [falling, single point] | 
2 | CN(CC(=O)Nc1ccc(Cl)cc1)C(=O)c1ccc(COc2ccccc2)cc1 | inconclusive: 13 µM [falling, partial curve] | 
3 | CCc1ccc(/C=C(\C#N)C(=O)NC2CCS(=O)(=O)C2)cc1 (stereo not drawn) | inconclusive: 0.146 µM [falling, full curve] | 
4 | Cc1cc(Oc2ccc(N)cn2)ccc1Cl | inconclusive: 16.4 µM [activator, partial curve, poor fit] | 
5 | CCn1c2cc(C)sc2c2cnn(Cc3ccccc3F)c(=O)c21 | inconclusive: 29.1 µM [falling, single point] | 
6 | C=C(C)CN1CCN(c2ccc(N3C(=O)CCCC3=O)cc2[N+](=O)[O-])CC1 | inconclusive: 20.6 µM [activator, partial curve, poor fit] | 
7 | Cc1nn(-c2ccccc2)c2nc(C3CC3)cc(C(=O)Nc3cccc(F)c3)c12 | inconclusive: 29.1 µM [falling, single point] | 
8 | COc1cccc(C(=O)Nc2ccc3nc(N4CCOCC4)cc(C)c3c2)c1 | inconclusive: 11.6 µM [falling, partial curve, poor fit] | 
9 | COc1ccccc1Nc1nnc(SCC(=O)Nc2nc(-c3ccc(F)cc3)cs2)s1 | inconclusive: 18.4 µM [falling, single point] | 
10 | COc1cc(/C=N/N2CCOCC2)ccc1OCc1ccccc1 | inconclusive: 0.411 µM [activator, full curve, poor fit] | 
11 | CN(C(=S)NC(=O)c1ccc(F)cc1)C1CCCCC1 | inconclusive: 29.1 µM [activator, single point] | 
12 | Cc1cccc(OCC(=O)NCC(=O)N/N=C/c2cc(Br)ccc2OCc2ccccc2)c1 |  | inactive: 0.772%
13 | CC(=O)Nc1ccc(Nc2nc(-c3c(C)nc4ccccn34)cs2)cc1 | inconclusive: 16.4 µM [falling, single point] | 
14 | Cc1ccc(C(=O)CSc2nc3cc(C(=O)NC4CCCC4)ccc3c(=O)n2CC2CCCO2)c(C)c1 (stereo not drawn) | inconclusive: 20.6 µM [activator, partial curve, poor fit] | 
15 | Cn1nc(C(C)(C)C)cc1NC(=O)Nc1cc(Cl)cc(Cl)c1 |  | inactive: -61.4%
16 | Cc1ccc(-c2nnc(CCC(=O)N(C)Cc3nccs3)o2)s1 | inconclusive: 13 µM [activator, partial curve] | 
17 | CCN(CC)S(=O)(=O)c1ccc(/C=C/C(=O)OCC(=O)NC(=O)C2COc3ccccc3O2)cc1 (stereo not drawn) | inconclusive: 14.6 µM [activator, partial curve] | 
18 | Brc1ccsc1/C=N/Nc1ccccc1 | inconclusive: 20.6 µM [activator, single point] | 
19 | COc1ccccc1NC(=O)c1ncn(-c2ccccc2)n1 | inconclusive: 14.6 µM [activator, partial curve, poor fit] | 
20 | CCCCN1C(=O)c2[nH]nc(-c3ccccc3O)c2C1c1ccc(OCc2ccccc2)c(OC)c1 (stereo not drawn) | inconclusive: 29.1 µM [falling, single point] | 
21 | O=C(NCC1OCCc2ccccc21)c1ccc(NC(=O)c2ccccc2Cl)cc1 (stereo not drawn) | active: 20.6 µM | 

Row | Compound | Potency | activity change, negative = inhibition
22 | COc1ccc(S(=O)(=O)NCC(=O)N(CC(=O)NCC2CCCO2)c2cc(C)ccc2C)cc1 (stereo not drawn) | inconclusive: 14.6 µM [activator, partial curve, poor fit] | 
23 | CCOC(=O)c1cccc(NC(=O)CCc2c(C)nn(-c3ccc(N4CCCCC4)nn3)c2C)c1 |  | inactive: -28.1%
24 | O=C(N1CCCCC1)C1(S(=O)(=O)c2ccccc2)CC=CC1 | inconclusive: 14.6 µM [activator, partial curve, poor fit] | 
25 | Cc1ccc(C(=O)N(CC(=O)Nc2sc(C)c(C)c2C(N)=O)C2CCCC2)cc1 | inconclusive: 2.31 µM [falling, single point] | 
26 | CN(CCOc1ccccc1)CC(=O)Nc1ccc(Cl)cc1[N+](=O)[O-] | inconclusive: 32.6 µM [falling, single point] | 
27 | CCCCN(CCCC)CCCNC(=O)c1ccc2nc(N3CCCCC3)sc2c1 | inconclusive: 1.64 µM [activator, full curve] | 
28 | Cc1ccc(CNC(=O)CCNS(=O)(=O)c2ccc3c(c2)CCCC(=O)N3)cc1 | inconclusive: 1.84 µM [falling, full curve, poor fit] | 
29 | CCOc1cc(/C=N\NC(=O)c2c(C)nc3ccccn23)ccc1O |  | inactive: -0.39%
30 | OC(COc1ccc(OCC(O)CN2CCN(Cc3ccccc3)CC2)cc1)CN1CCN(Cc2ccccc2)CC1 (stereo not drawn) | inconclusive: 29.1 µM [activator, single point] | 
31 | Cc1nn2c(=O)cc(COc3ccc(/C=C(\C#N)C(=O)Nc4ccccc4C)cc3)nc2s1 | inconclusive: 18.4 µM [falling, single point] | 
32 | C#CCOCCOCCOCCNc1nc(N2CCN(C(=O)[C@H](CO)n3cc([C@@H](N)C(C)C)nn3)CC2)nc(N2CCN(C(=O)[C@H](CCC(=O)O)n3cc([C@@H](N)[C@H](C)CC)nn3)CC2)n1 |  | inactive: 10.7%
33 | CC1CC(C)CN(CCCNS(=O)(=O)c2cc(Br)cc3c2N(C(=O)C2CC2)CC3)C1 (stereo not drawn) |  | inactive: 12.5%
34 | O=C(Cn1c(=O)c2c3c(sc2n(Cc2ccccc2)c1=O)CCCC3)NCCO | inconclusive: 23.1 µM [falling, partial curve, poor fit] | 
35 | CCN(CC)S(=O)(=O)c1ccc(Cl)c(OC)c1 | inconclusive: 11.6 µM [falling, partial curve, poor fit] | 
36 | Cc1ccc(C(=O)N/N=C\c2ccc[nH]2)cn1 | inconclusive: 23.1 µM [falling, single point] | 
37 | Cc1csc(NC(=O)COc2ccc3c(c2)CCC3)n1 | inconclusive: 20.6 µM [activator, single point] | 
38 | CN(c1ccc(C(=O)N2CCCCC2)cc1)S(=O)(=O)c1cccs1 | inconclusive: 32.6 µM [falling, single point] | 
39 | O=C1Nc2ccc(Br)cc2/C1=N/N=C/C1=C(N2CCOCC2)C(=C\c2ccccc2)/CC1 | active: 20.6 µM | 
40 | COCCN(C(=O)c1cccc(N2C(=O)CCC2=O)c1)c1nc(-c2ccc([N+](=O)[O-])cc2)cs1 | inconclusive: 18.4 µM [falling, single point] | 
41 | COc1ccc(OC)c(NC(=O)CSc2nccn2Cc2ccco2)c1 | inconclusive: 1.64 µM [activator, full curve, poor fit] | 
42 | COc1ccc(C(=O)NCCc2ccccc2F)cc1OC1CCN(C(C)=O)CC1 | inconclusive: 0.0046 µM [falling, full curve, poor fit] | 

Full records, looked up by structure.
`COCCN(C(=O)c1cccc(N2C(=O)CCC2=O)c1)c1nc(-c2ccc([N+](=O)[O-])cc2)cs1` as listed: Potency: inconclusive: 18.4 µM [falling, single point]
`O=C(Cn1c(=O)c2c3c(sc2n(Cc2ccccc2)c1=O)CCCC3)NCCO` as listed: Potency: inconclusive: 23.1 µM [falling, partial curve, poor fit]
`CN(c1ccc(C(=O)N2CCCCC2)cc1)S(=O)(=O)c1cccs1` as listed: Potency: inconclusive: 32.6 µM [falling, single point]

Following part.

Row | Compound | Potency | activity change, negative = inhibition
43 | COc1ccc(NCc2cc3ccc(OC)cc3n(CC(=O)Nc3ccc(C)c(C)c3)c2=O)cc1 |  | inactive: 24.8%
44 | CC(C)OC(=O)c1sc2nc3c(cc2c1N)C(=O)CCC3 | inconclusive: 8.2 µM [activator, partial curve] | 
45 | CC(=O)c1sc(NC(=O)c2ccccc2)nc1-c1ccccc1 | inconclusive: 5.8 µM [activator, full curve, poor fit] | 
46 | CC(C)Cc1ccc(C(C)C(N)=Nc2ccc(O)cc2)cc1 (stereo not drawn) | inconclusive: 23.1 µM [activator, partial curve] | 
47 | O=C(CCC(=O)c1ccc(F)cc1)NCc1ccccc1C(F)(F)F |  | inactive: 22.6%
48 | CCOc1ccc(OCC)c(NC(=O)c2cnn(-c3ccc(F)cc3)c2-n2cccc2)c1 | inconclusive: 18.4 µM [falling, partial curve, poor fit] | 
49 | CCCN1CCN(c2nnc(-n3cccc3C(=O)Nc3ccccc3C(F)(F)F)s2)CC1 | inconclusive: 23.1 µM [activator, single point] | 
50 | CC(=O)Nc1ccc(-c2csc(Nc3cc(C)ccn3)n2)cc1 | inconclusive: 29.1 µM [falling, single point] | 
51 | CCOc1ccc(-c2cc3c(=O)n(Cc4nc(-c5ccc(OCC)c(OC)c5)oc4C)ccn3n2)cc1Cl |  | inactive: 9.19%
52 | CCc1cccc(NC(=O)C2CCCN(c3ncnc4c3nc3n4CCCCC3)C2)c1 (stereo not drawn) | inconclusive: 23.1 µM [falling, single point] | 
53 | CCCCn1cc2c(c1-c1ccc(Br)cc1)c(=O)n(C)c(=O)n2C | inconclusive: 32.6 µM [falling, single point] | 
54 | CSc1ccc(C2c3c(-c4ccccc4O)n[nH]c3C(=O)N2Cc2ccncc2)cc1 (stereo not drawn) |  | inactive: -12.7%
55 | CCC(=NCCc1c(C)[nH]c2ccc(OC(F)(F)F)cc12)C1=C(O)CC(c2ccccc2)CC1=O (stereo not drawn) | active: 20.6 µM | 
56 | CC1C(=O)N2CCCc3cc(NC(=O)C(=O)NCCc4ccccc4)cc1c32 (stereo not drawn) | inconclusive: 20.6 µM [falling, single point] | 
57 | Clc1ccc(C2Nc3cccc4cccc(c34)N2)cc1Cl | inconclusive: 6.51 µM [activator, single point] | 
58 | C[C@H](CO)N1C[C@H](C)[C@@H](CN(C)S(=O)(=O)c2cccs2)Oc2c(NC(=O)C3CC3)cccc2C1=O |  | inactive: 5.85%
59 | N#CC1=C(N)Oc2c(ccc3cccnc23)C1c1ccccc1 (stereo not drawn) |  | inactive: -16.2%
60 | O=C(Cc1coc(-c2ccc(F)cc2)n1)NCc1ccccc1 | inconclusive: 0.411 µM [activator, full curve, poor fit] | 
61 | Cc1ccc(C(=O)OC(C)C(=O)NC2CCCCC2)cc1S(=O)(=O)N1CCCCC1 (stereo not drawn) | inconclusive: 14.6 µM [falling, partial curve, poor fit] | 
62 | CCOP(=O)(OCC)C(NC(=O)Nc1ccc(Cl)c(Cl)c1)c1ccccc1 (stereo not drawn) |  | inactive: 4.61%
63 | CN(C(=O)Nc1ccc(Cl)cc1Cl)[C@H]1c2cc(Br)ccc2OC[C@H]1CO | inconclusive: 20.6 µM [falling, single point] | 

Reformatted with each value named: 2 of the compounds above
Cn1nc(C(C)(C)C)cc1NC(=O)Nc1cc(Cl)cc(Cl)c1
  activity change, negative = inhibition: inactive: -61.4%
Cc1ccc(-c2nnc(CCC(=O)N(C)Cc3nccs3)o2)s1
  Potency: inconclusive: 13 µM [activator, partial curve]
